Results from patent publication US8476434B2, “Protein kinase modulators and method of use” (Amgen Inc., priority 2004, dated 2013).
pIC50: −log10 of the molar value. Some of these results come from one statement about several compounds together.

Protein sequences, listed by entry. Tags and fused reporters are not part of them. Residues count along the entry.
UniProt Q96GD4, whole entry: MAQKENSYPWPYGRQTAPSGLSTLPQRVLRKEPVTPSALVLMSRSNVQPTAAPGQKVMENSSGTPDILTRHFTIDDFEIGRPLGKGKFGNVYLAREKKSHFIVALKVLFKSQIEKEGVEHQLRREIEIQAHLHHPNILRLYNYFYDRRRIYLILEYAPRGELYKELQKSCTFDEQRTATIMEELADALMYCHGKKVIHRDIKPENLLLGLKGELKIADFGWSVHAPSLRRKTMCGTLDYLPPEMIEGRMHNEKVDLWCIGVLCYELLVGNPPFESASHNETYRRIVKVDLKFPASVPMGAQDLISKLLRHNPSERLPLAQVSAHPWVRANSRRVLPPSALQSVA
UniProt Q02763, 23-1124: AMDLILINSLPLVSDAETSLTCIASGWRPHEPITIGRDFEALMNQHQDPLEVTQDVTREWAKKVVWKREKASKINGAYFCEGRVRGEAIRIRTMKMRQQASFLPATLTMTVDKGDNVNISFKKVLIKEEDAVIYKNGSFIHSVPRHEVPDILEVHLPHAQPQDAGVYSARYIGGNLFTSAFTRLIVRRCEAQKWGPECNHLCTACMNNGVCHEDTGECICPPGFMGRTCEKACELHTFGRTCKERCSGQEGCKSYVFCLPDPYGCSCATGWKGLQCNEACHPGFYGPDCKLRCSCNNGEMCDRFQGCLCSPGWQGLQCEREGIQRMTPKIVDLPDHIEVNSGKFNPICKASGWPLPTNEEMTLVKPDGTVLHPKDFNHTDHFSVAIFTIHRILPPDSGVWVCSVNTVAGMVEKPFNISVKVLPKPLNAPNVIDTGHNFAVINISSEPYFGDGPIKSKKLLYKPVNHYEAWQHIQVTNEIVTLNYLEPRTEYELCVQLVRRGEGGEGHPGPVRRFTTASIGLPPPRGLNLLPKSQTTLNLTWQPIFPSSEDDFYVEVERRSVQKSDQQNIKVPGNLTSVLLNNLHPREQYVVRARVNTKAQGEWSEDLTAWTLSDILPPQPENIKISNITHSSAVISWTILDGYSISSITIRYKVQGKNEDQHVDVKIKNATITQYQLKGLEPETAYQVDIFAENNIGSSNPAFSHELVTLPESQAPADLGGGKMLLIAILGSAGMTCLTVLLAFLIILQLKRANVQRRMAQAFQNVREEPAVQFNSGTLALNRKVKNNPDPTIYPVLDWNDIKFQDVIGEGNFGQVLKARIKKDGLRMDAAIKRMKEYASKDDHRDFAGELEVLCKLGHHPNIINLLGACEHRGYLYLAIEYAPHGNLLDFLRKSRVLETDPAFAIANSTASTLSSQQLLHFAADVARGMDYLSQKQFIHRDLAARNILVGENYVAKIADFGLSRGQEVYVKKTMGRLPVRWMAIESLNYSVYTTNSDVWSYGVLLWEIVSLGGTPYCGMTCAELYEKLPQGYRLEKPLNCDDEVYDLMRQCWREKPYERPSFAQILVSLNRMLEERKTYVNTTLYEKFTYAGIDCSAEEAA

Legend:
Format in all cases: biochemical
AuroraB FL His = molecular target: T1, AuroraB FL His (Homo sapiens, UniProt Q96GD4); assay: AuroraB Homogeneous Time Resolved Fluorescent (HTRF) kinase assay; conditions: read-out: activity in the Aurora kinase B HTRF assay
T1 construct: AuroraB FL His; His

AuroraA-TPX2 KD GST = molecular target: T2, AuroraA-TPX2 KD GST (Homo sapiens, UniProt O14965); assay: AuroraA-TPX2 Homogeneous Time Resolved Fluorescent (HTRF) kinase assay; conditions: read-out: activity in the Aurora kinase A HTRF assay
T2 construct: AuroraA-TPX2 KD GST; GST
T2 sequence (O14965 133-383 limits assumed): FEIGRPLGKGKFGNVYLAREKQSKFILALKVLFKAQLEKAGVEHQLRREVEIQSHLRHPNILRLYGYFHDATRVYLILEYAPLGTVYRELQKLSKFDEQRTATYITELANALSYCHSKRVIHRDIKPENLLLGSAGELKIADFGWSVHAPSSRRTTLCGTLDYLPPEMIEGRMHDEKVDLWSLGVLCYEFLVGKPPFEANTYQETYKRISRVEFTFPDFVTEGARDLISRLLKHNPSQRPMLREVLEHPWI
T2 sequence (Q9ULW0 1-43 partner limits assumed): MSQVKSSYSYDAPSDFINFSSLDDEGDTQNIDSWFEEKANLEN

Tie-2 kinase enzyme = Tie-2 kinase enzyme (Homo sapiens, UniProt Q02763); assay: Tie-2 Homogenous Time Resolved Fluorescent (HTRF) kinase assay; conditions: read-out: IC50's for the inhibition of Tie-2 as measured by the HTRF assay

Compound | pIC50 (AuroraB FL His) | pIC50 (AuroraA-TPX2 KD GST) | pIC50 (Tie-2 kinase enzyme)
CN(C)c1cccc(NC(=O)c2cccc(Oc3ncccc3-c3ccncn3)c2)c1 [Example 572, N-(3-(dimethylamino)phenyl)-3-((3-(4-pyrimidinyl)-2-pyridinyl)oxy)benzamide] | > 5.00 | – | –
CCOC(=O)c1ccc(NC(=O)Nc2ccc(Oc3ncccc3-c3ccnc(NC)n3)cc2)cc1 [Example 934, ethyl 4-((((4-((3-(2-(methylamino)-4-pyrimidinyl)-2-pyridinyl)oxy)phenyl)amino)carbonyl)amino) benzoate] | – | > 5.00 | > 5.30
CNc1nccc(-c2cccnc2Oc2ccc(NC(=O)Nc3ccccc3Br)cc2)n1 [Example 935, N-(2-bromophenyl)-N′-(4-((3-(2-(methylamino)-4-pyrimidinyl)-2-pyridinyl)oxy)phenyl)urea] | – | > 5.00 | > 5.30
CCOc1ccccc1NC(=O)Nc1ccc(Oc2ncccc2-c2ccnc(NC)n2)cc1 [Example 936, N-(2-(ethyloxy)phenyl)-N′-(4-((3-(2-(methylamino)-4-pyrimidinyl)-2-pyridinyl)oxy)phenyl)urea] | – | > 5.00 | > 5.30
CNc1nccc(-c2cccnc2Oc2ccc(NC(=O)c3ccccc3Cl)cc2C)n1 [Example 941, 2-chloro-N-(3-methyl-4-((3-(2-(methylamino)-4-pyrimidinyl)-2-pyridinyl)oxy)phenyl) benzamide] | – | > 5.00 | > 5.30
CNc1nccc(-c2cccnc2Oc2ccc(NC(=O)c3cccc(Cl)c3)cc2C)n1 [Example 942, 3-chloro-N-(3-methyl-4-((3-(2-(methylamino)-4-pyrimidinyl)-2-pyridinyl)oxy)phenyl) benzamide] | – | > 5.00 | > 5.30
CNc1nccc(-c2cccnc2Oc2ccc(NC(=O)Nc3ccccc3Cl)cc2)n1 [Example 944, N-(2-chlorophenyl)-N′-(4-((3-(2-(methylamino)-4-pyrimidinyl)-2-pyridinyl)oxy)phenyl)urea] | – | > 5.00 | > 5.30
CNc1nccc(-c2cccnc2Oc2ccc(NC(=O)c3cccc(C(F)(F)F)c3)c3ccccc23)n1 [Example 946, N-(4-((3-(2-(methylamino)-4-pyrimidinyl)-2-pyridinyl)oxy)-1-naphthalenyl)-3-(trifluoromethyl)benzamide] | – | > 5.00 | > 5.30
CNc1nccc(-c2cccnc2Oc2ccc(NC(=O)c3sccc3Cl)cc2C)n1 [Example 947, 3-chloro-N-(3-methyl-4-((3-(2-(methylamino)-4-pyrimidinyl)-2-pyridinyl)oxy)phenyl)-2-thiophenecarboxamide] | – | > 5.00 | > 5.30
CNc1nccc(-c2cccnc2Oc2ccc(NC(=O)c3sc4ccccc4c3Cl)cc2C)n1 [Example 949, 3-chloro-N-(3-methyl-4-((3-(2-(methylamino)-4-pyrimidinyl)-2-pyridinyl)oxy)phenyl)-1-benzothiophene-2-carboxamide] | – | > 5.00 | > 5.30
CNc1nccc(-c2cccnc2Oc2ccc(NC(=O)c3sccc3C)cc2C)n1 [Example 951, 3-methyl-N-(3-methyl-4-((3-(2-(methylamino)-4-pyrimidinyl)-2-pyridinyl)oxy)phenyl)-2-thiophenecarboxamide] | – | > 5.00 | > 5.30
CNc1nccc(-c2cccnc2Oc2ccc(NC(=O)Nc3ccccc3C(F)(F)F)cc2)n1 [Example 957, N-(4-((3-(2-(methylamino)-4-pyrimidinyl)-2-pyridinyl)oxy)phenyl)-N′-(2-(trifluoromethyl)phenyl)urea] | – | > 5.00 | > 5.30
CNc1nccc(-c2cccnc2Oc2ccc(NC(=O)Nc3ccc(F)c(Cl)c3)cc2)n1 [Example 958, N-(3-chloro-4-fluorophenyl)-N′-(4-((3-(2-(methylamino)-4-pyrimidinyl)-2-pyridinyl)oxy)phenyl)urea] | – | > 5.00 | > 5.30
CNc1nccc(-c2cccnc2Oc2ccc(NC(=O)Nc3ccc(F)c(F)c3)cc2)n1 [Example 959, N-(3,4-difluorophenyl)-N′-(4-((3-(2-(methylamino)-4-pyrimidinyl)-2-pyridinyl)oxy)phenyl)urea] | – | > 5.00 | > 5.30
CNc1nccc(-c2cccnc2Oc2ccc(NC(=O)Nc3ccccc3)c(C)c2C)n1 [Example 960, N-(2,3-dimethyl-4-((3-(2-(methylamino)-4-pyrimidinyl)-2-pyridinyl)oxy)phenyl)-N′-phenylurea] | – | > 5.00 | > 5.30
CNc1ncnc(-c2cccnc2Oc2ccc(NC(=O)Nc3cccc(C(F)(F)F)c3)cc2)n1 [Example 963, N-(4-((3-(4-(methylamino)-1,3,5-triazin-2-yl)-2-pyridinyl)oxy)phenyl)-N′-(3-(trifluoromethyl)phenyl)urea] | – | > 5.00 | > 5.30

Compound | pIC50 (AuroraB FL His) | pIC50 (AuroraA-TPX2 KD GST) | pIC50 (Tie-2 kinase enzyme)
CNc1nccc(-c2cccnc2Oc2ccc(NC(=O)c3cccc(C(F)(F)F)c3)c(C)c2)n1 [Example 964, N-(2-methyl-4-((3-(2-(methylamino)-4-pyrimidinyl)-2-pyridinyl)oxy)phenyl)-3-(trifluoromethyl)benzamide] | – | > 5.00 | > 5.30
CNc1nccc(-c2cccnc2Oc2ccc(NC(=O)c3cccc(Br)c3)c(C)c2)n1 [Example 965, 3-bromo-N-(2-methyl-4-((3-(2-(methylamino)-4-pyrimidinyl)-2-pyridinyl)oxy)phenyl)benz-amide] | – | > 5.00 | > 5.30
CNc1nccc(-c2cccnc2Oc2ccc(NC(=O)Nc3ccccc3)c(C)c2)n1 [Example 969, N-(2-methyl-4-((3-(2-(methylamino)-4-pyrimidinyl)-2-pyridinyl)oxy)phenyl)-N′-phenylurea] | – | > 5.00 | > 5.30
CNc1nccc(-c2cccnc2Oc2ccc(NC(=O)Nc3ccc(SC(F)(F)F)cc3)cc2)n1 [Example 972, N-(4-((3-(2-(methylamino)-4-pyrimidinyl)-2-pyridinyl)oxy)phenyl)-N′-(4-((trifluoromethyl)sulfanyl)phenyl)urea] | – | > 5.00 | > 5.30
CNc1nccc(-c2cccnc2Oc2ccc(NC(=O)Nc3ccc(C#N)cc3)cc2)n1 [Example 977, N-(4-cyanophenyl)-N′-(4-((3-(2-(methylamino)-4-pyrimidinyl)-2-pyridinyl)oxy)phenyl)urea] | – | > 5.00 | > 5.30
CNc1nccc(-c2cccnc2Oc2ccc(NC(=O)Nc3cc(OC)c(OC)c(OC)c3)cc2)n1 [Example 980, N-(4-((3-(2-(methylamino)-4-pyrimidinyl)-2-pyridinyl)oxy)phenyl)-N′-(3,4,5-tris(methyloxy)phenyl)urea] | – | > 5.00 | > 5.30
CNc1nccc(-c2cccnc2Oc2ccc(NC(=O)Nc3cccc(C(F)(F)F)c3F)cc2)n1 [Example 981, N-(2-fluoro-3-(trifluoromethyl)phenyl)-N′-(4-((3-(2-(methylamino)-4-pyrimidinyl)-2-pyridinyl)oxy)phenyl)urea] | – | > 5.00 | > 5.30
CNc1nccc(-c2cccnc2Oc2ccc(NC(=O)c3ccc4[nH]cnc4c3)cc2C)n1 [Example 983, N-(3-methyl-4-((3-(2-(methylamino)-4-pyrimidinyl)-2-pyridinyl)oxy)phenyl)-1H-benzimidazole-5-carboxamide] | – | > 5.00 | > 5.30
CNc1nccc(-c2cccnc2Oc2ccc(NC(=O)c3cccc4ccccc34)cc2C)n1 [Example 987, N-(3-methyl-4-((3-(2-(methylamino)-4-pyrimidinyl)-2-pyridinyl)oxy)phenyl)-1-naphthalenecarboxamide] | – | > 5.00 | > 5.30
CNc1nccc(-c2cccnc2Oc2ccc(NC(=O)c3ccc4ncccc4c3)cc2C)n1 [Example 989, N-(3-methyl-4-((3-(2-(methylamino)-4-pyrimidinyl)-2-pyridinyl)oxy)phenyl)-6-quinolinecarboxamide] | – | > 5.00 | > 5.30
CNc1nccc(-c2cccnc2Oc2ccc(NC(=O)Nc3ccc(Cl)c(C(F)(F)F)c3)cc2)n1 [Example 992, N-(4-chloro-3-(trifluoromethyl)phenyl)-N′-(4-((3-(2-(methylamino)-4-pyrimidinyl)-2-pyridinyl)oxy)phenyl)urea] | – | > 5.00 | > 5.30
CNc1nccc(-c2cccnc2Oc2ccc(NC(=O)Nc3ccc(OC)c(Cl)c3)cc2)n1 [Example 996, N-(3-chloro-4-(methyloxy)phenyl)-N′-(4-((3-(2-(methylamino)-4-pyrimidinyl)-2-pyridinyl)oxy)phenyl)urea] | – | > 5.00 | > 5.30
CNc1nccc(-c2cccnc2Oc2ccc(NC(=O)NC(C)(C)C)c3ccccc23)n1 [Example 1114, 1-tert-butyl-3-(4-(3-(2-(methylamino)pyrimidin-4-yl)pyridin-2-yloxy)naphthalen-1-yl)urea] | – | > 5.00 | > 5.30
Cc1cc(NC(=O)Nc2cccc(C(F)(F)F)c2)ccc1Oc1ncccc1-c1ccncn1 [Example 1155, N-(3-methyl-4-((3-(4-pyrimidinyl)-2-pyridinyl)oxy)phenyl)-N′-(3-(trifluoromethyl)phenyl)urea] | – | > 5.00 | > 5.30
CNc1nccc(-c2cc(Cl)cnc2Oc2ccc(NC(=O)c3cccc(C(F)(F)F)c3)cc2C)n1 [Example 1158, N-(4-((5-chloro-3-(2-(methylamino)-4-pyrimidinyl)-2-pyridinyl)oxy)-3-methylphenyl)-3-(trifluoromethyl) benzamide] | – | > 5.00 | > 5.30
